Experiment [1] concerns the target T1, HA-OGA(544-706) (human) (UniProt O60502).
T1 sequence: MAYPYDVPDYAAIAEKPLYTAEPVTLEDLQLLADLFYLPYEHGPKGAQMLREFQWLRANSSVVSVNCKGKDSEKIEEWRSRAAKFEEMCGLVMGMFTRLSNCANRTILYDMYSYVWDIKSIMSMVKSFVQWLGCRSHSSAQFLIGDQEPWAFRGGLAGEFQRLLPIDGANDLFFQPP
Briefly: co-immunoprecipitation from HEK 293T lysates, immunoblot. On the technique in general: Immunoblotting shows a protein as a band on a membrane.

The chains behind the UniProt entries cited, without tags or fusion partners. Where a name states a change or a piece, a line headed by the entry shows the natural chain unless it says otherwise.
UniProt O60502: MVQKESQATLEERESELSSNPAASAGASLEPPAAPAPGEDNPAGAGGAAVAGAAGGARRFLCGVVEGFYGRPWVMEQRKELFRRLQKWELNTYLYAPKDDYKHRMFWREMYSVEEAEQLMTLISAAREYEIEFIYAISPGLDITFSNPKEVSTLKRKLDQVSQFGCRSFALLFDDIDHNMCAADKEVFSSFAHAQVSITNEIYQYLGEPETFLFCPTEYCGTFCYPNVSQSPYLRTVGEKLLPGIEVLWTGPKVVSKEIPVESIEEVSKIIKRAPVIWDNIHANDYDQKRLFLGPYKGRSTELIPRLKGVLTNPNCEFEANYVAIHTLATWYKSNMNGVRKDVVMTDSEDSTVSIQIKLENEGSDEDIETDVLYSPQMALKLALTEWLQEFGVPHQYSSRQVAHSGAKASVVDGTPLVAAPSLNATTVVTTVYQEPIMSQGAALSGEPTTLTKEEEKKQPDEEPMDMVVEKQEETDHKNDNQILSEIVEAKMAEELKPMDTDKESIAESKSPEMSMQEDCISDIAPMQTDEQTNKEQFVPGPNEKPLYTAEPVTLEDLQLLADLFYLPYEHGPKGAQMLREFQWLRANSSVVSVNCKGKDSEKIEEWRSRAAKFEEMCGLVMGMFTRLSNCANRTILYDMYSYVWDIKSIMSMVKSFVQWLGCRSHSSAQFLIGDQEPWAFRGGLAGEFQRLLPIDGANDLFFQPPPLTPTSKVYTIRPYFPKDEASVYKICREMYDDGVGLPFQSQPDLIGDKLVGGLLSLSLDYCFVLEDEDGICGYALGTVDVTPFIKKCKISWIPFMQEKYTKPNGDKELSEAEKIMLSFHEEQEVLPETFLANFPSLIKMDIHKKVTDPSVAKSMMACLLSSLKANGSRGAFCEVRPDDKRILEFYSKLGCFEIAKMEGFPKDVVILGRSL

For experiment [2], the target named is HA-nGFP-(EAAAK)4-OGA(544-706) (human). Briefly: reciprocal co-immunoprecipitation from HEK 293T lysates, immunoblot.
Experiment [3] concerns the target T2, OGT with C-terminal His tag (human) (UniProt O15294).
T2 sequence (looked up): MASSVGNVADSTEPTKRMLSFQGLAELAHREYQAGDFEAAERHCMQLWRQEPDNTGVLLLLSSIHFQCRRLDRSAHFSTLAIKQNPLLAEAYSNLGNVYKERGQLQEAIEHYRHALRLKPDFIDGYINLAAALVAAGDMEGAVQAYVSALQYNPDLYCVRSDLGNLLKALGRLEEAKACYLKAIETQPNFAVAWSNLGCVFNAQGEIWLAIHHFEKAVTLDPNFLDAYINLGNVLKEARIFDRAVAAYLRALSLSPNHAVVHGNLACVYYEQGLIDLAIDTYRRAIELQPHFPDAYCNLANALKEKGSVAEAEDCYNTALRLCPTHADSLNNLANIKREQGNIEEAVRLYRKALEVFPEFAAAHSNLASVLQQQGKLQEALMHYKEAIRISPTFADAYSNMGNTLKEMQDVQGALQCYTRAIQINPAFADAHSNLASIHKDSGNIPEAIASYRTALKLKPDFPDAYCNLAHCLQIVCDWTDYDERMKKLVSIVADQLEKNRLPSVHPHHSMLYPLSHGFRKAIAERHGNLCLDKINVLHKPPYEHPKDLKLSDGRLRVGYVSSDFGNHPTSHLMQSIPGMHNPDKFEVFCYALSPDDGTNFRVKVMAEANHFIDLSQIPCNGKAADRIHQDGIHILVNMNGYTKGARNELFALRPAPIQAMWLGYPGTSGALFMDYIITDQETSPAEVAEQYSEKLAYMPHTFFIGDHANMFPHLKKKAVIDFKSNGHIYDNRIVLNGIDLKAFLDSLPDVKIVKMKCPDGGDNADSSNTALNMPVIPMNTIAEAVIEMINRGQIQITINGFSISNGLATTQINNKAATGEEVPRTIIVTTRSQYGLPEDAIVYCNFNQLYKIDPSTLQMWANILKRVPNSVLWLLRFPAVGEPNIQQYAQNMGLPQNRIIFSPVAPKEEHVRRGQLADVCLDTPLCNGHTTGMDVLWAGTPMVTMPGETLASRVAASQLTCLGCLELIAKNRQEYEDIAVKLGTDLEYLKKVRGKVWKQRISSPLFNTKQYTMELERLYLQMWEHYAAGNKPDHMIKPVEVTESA
Briefly: co-immunoprecipitation with beads against the His tag of OGT from HEK 293T lysates, immunoblot.

No constants are given. Whether binding was seen depends on the method and setting. Binding seen in cells or lysates may run through a third protein. Some entries that bind do so weakly or less than the wild type. Sequences can lack the tags named with a protein.

B1: myc-OGA(1-400) (enzyme)
chain: MEQKLISEEDLAIAMVQKESQATLEERESELSSNPAASAGASLEPPAAPAPGEDNPAGAGGAAVAGAAGGARRFLCGVVEGFYGRPWVMEQRKELFRRLQKWELNTYLYAPKDDYKHRMFWREMYSVEEAEQLMTLISAAREYEIEFIYAISPGLDITFSNPKEVSTLKRKLDQVSQFGCRSFALLFDDIDHNMCAADKEVFSSFAHAQVSITNEIYQYLGEPETFLFCPTEYCGTFCYPNVSQSPYLRTVGEKLLPGIEVLWTGPKVVSKEIPVESIEEVSKIIKRAPVIWDNIHANDYDQKRLFLGPYKGRSTELIPRLKGVLTNPNCEFEANYVAIHTLATWYKSNMNGVRKDVVMTDSEDSTVSIQIKLENEGSDEDIETDVLYSPQMALKLALTEWLQEFGVPHQYSSR
For B1, the binding entry in experiment [1] and in experiment [2] was “binds” in each case.

B2: myc-OGA (full length human OGA with a myc tag) (enzyme)
chain: MASMQKLISEEDLLMAMEARIRSTVQKESQATLEERESELSSNPAASAGASLEPPAAPAPGEDNPAGAGGAAVAGAAGGARRFLCGVVEGFYGRPWVMEQRKELFRRLQKWELNTYLYAPKDDYKHRMFWREMYSVEEAEQLMTLISAAREYEIEFIYAISPGLDITFSNPKEVSTLKRKLDQVSQFGCRSFALLFDDIDHNMCAADKEVFSSFAHAQVSITNEIYQYLGEPETFLFCPTEYCGTFCYPNVSQSPYLRTVGEKLLPGIEVLWTGPKVVSKEIPVESIEEVSKIIKRAPVIWDNIHANDYDQKRLFLGPYKGRSTELIPRLKGVLTNPNCEFEANYVAIHTLATWYKSNMNGVRKDVVMTDSEDSTVSIQIKLENEGSDEDIETDVLYSPQMALKLALTEWLQEFGVPHQYSSRQVAHSGAKASVVDGTPLVAAPSLNATTVVTTVYQEPIMSQGAALSGEPTTLTKEEEKKQPDEEPMDMVVEKQEETDHKNDNQILSEIVEAKMAEELKPMDTDKESIAESKSPEMSMQEDCISDIAPMQTDEQTNKEQFVPGPNEKPLYTAEPVTLEDLQLLADLFYLPYEHGPKGAQMLREFQWLRANSSVVSVNCKGKDSEKIEEWRSRAAKFEEMCGLVMGMFTRLSNCANRTILYDMYSYVWDIKSIMSMVKSFVQWLGCRSHSSAQFLIGDQEPWAFRGGLAGEFQRLLPIDGANDLFFQPPPLTPTSKVYTIRPYFPKDEASVYKICREMYDDGVGLPFQSQPDLIGDKLVGGLLSLSLDYCFVLEDEDGICGYALGTVDVTPFIKKCKISWIPFMQEKYTKPNGDKELSEAEKIMLSFHEEQEVLPETFLANFPSLIKMDIHKKVTDPSVAKSMMACLLSSLKANGSRGAFCEVRPDDKRILEFYSKLGCFEIAKMEGFPKDVVILGRSL
As to B2, the binding entry in experiment [3] is given as “binds”.

The record behind these values is patent US20240043528A1, “NANOBODY-OGA FUSIONS AND USES THEREOF” (President and Fellows of Harvard College, priority 2020, published 2024).
